In patent publication US20060009379A1 one finds binding data, which are given here for two molecules.

The target in assay [1] is p53 (full-length), from 293 cell lysate (UniProt P04637). The assay can be described thus: GST-raNS pull-down from cell lysate, Western blot. (In general: A western blot detects proteins with antibodies after separation by electrophoresis.)
Assay [2] shares this target. The assay can be described thus: GST pull-down, Western blot (FIG. 6E left upper panel).
For assay [3], the target named is GST-p53 fusion protein (UniProt P04637). In words: GST-p53 pull-down from cell lysate, Western blot.
Assay [4] shares this target. The assay can be described thus: GST-p53 pull-down, Western blot (FIG. 6E left lower panel).

These are yes or no findings as the source states them, for the method shown. In cells and extracts the contact can be indirect. Some entries that bind do so weakly or less than the wild type. For some of these results: Sequences can lack the tags named with a protein.

B1: GST-raNS (GST fusion of rat nucleostemin) (protein, not shown: a dimerising Fc or GST)
chain: MKRPKLKKASKRMTCHKRYKIQKKVREHHRKLRKEAKKRGHKKPKKDPGVPNSAPFKEALLREAELRKQQLEELKQQQKLDRQKEQERKRKLEISPDDEQSNVETQEESDEPKIKKAKSGKQNPKKLHCQELKKVIEASDIVLEVLDARDPLGCRCPQVEEAVIQSGCKKLVLVLNKSDLVPKENLENWLTYLNKELPTVVFKASTNLKNRKKTFKIKKKVVPFQSKLCCGKEALWKLLGGFQQSCGKGVQVGVVGFPNVGKSSIINSLKQERICSVGVSMGLTRSMQIVPLDKQITIIDSPCFIISPCNSPAALALRSPASIEVLRPLEAASAILSQADSQQVVLKYTVPGYKDSLDFFTKLAQRRGLHQKGGSPNVESAAKLLWSEWTGASLGYYCHPPASWNHSPHFNENITAIMKRGFNLEELEKNNAHSIQVLKGPHLTNKILFRSSGLTNGILEEKDIPEESPKQTEDQQDGDDQEHVTGEKNAEISDVTPVEETREMSPGQSTASKPSDRSFILDKMSEEDDAYDFTTDYI
Consider B1, for which the binding result in assay [1] and in assay [2] was “binds” throughout.

B2: rat nucleostemin (raNS), wild type (protein)
chain: B1 chain
For B2, the binding result in assay [3] and in assay [4] was “binds” in each case.
